Results are given in words; binding and its absence hold for the method and conditions named. A result given as binding can be weak or reduced; the word gives no strength. Sequences can lack the tags named with a protein. For some assays here: In cells and extracts the contact can be indirect.
Columns and labels:
Flag-ELP3 = molecular target: T1, Flag-ELP3 (UniProt Q9H9T3); experiment: co-IP; two tagged proteins co-transfected into HEK-293T cells (control cells; for Flag-ELP3 with HA-c-Myc also ELP4-knockdown or ELP5-knockdown cells); IP with anti-Flag M2 beads or anti-HA with A/G beads, 3 h; lysis buffer 20 mM Tris–HCl pH 7.4, 150 mM NaCl, 1% Triton; immunoblot for the other tag
T1 sequence: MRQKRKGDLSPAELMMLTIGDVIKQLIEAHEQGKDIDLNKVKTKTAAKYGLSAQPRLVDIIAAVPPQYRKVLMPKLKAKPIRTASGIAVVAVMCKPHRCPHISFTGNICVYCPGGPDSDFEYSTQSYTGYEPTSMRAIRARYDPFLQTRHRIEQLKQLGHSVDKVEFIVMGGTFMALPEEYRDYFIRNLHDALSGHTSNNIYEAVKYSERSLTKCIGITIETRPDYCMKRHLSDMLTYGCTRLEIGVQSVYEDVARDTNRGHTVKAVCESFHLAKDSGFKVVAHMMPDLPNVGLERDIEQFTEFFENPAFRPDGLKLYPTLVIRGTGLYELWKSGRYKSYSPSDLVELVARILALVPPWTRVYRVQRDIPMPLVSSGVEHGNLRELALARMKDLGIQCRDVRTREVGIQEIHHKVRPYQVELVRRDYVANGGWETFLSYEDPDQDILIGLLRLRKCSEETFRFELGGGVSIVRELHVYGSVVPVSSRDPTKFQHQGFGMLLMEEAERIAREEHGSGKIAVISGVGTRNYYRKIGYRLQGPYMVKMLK

GST-ELP3 1–81 = molecular target: T2, GST-ELP3 1–81 (UniProt Q9H9T3); experiment: pull-down; GST-ELP3 1–81 (GST as control) incubated with MBP-His-c-Myc 1–143 for 3 h at 4°C in 50 mM Tris–HCl pH 7.6, 120 mM NaCl, 5 mM MgCl2, 0.5% NP-40, 1 mM EDTA, then glutathione sepharose beads; SDS–PAGE and Coomassie staining; both purified
T2 sequence: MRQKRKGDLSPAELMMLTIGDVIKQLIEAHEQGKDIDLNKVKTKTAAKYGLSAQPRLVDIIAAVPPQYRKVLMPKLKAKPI

Row | binding (Flag-ELP3) | binding (GST-ELP3 1–81) | Substance
1 | binds | – | HA-c-Myc T58A
2 | binds | – | HA-c-Myc T58A/S62A
3 | binds | – | HA-c-Myc T244A

Further lines, the substance ahead of its results:

Row | Substance | binding (Flag-ELP3) | binding (GST-ELP3 1–81)
4 | HA-c-Myc S62A | binds | –
5 | MBP-His-c-Myc 1–143 (domain or fragment) | – | binds
